Reference: PMC13195034

The chains behind the UniProt entries cited, without tags or fusion partners. Where a name states a change or a piece, a line headed by the entry shows the natural chain unless it says otherwise.
UniProt P34021: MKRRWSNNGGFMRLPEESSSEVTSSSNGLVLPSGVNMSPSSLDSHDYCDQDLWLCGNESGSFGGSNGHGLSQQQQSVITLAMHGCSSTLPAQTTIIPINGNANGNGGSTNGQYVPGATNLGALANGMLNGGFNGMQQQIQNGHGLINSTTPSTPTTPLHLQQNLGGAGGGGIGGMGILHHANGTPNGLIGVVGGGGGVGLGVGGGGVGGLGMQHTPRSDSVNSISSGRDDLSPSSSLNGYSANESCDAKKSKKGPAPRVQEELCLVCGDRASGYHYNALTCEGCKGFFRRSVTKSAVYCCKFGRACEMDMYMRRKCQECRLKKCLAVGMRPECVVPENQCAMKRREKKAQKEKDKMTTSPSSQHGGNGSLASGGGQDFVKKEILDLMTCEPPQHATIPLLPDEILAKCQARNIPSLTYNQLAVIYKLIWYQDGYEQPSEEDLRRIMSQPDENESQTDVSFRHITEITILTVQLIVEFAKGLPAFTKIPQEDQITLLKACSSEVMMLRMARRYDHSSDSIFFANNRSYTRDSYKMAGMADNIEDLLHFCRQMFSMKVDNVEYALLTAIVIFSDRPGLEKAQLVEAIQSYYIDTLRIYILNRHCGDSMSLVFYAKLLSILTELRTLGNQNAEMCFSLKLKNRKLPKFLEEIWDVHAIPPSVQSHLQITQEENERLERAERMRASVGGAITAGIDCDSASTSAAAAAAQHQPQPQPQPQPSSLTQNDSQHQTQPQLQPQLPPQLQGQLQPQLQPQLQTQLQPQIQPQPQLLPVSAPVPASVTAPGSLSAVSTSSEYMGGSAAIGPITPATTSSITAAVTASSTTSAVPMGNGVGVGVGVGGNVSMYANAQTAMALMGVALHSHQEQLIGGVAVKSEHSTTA
UniProt O44960: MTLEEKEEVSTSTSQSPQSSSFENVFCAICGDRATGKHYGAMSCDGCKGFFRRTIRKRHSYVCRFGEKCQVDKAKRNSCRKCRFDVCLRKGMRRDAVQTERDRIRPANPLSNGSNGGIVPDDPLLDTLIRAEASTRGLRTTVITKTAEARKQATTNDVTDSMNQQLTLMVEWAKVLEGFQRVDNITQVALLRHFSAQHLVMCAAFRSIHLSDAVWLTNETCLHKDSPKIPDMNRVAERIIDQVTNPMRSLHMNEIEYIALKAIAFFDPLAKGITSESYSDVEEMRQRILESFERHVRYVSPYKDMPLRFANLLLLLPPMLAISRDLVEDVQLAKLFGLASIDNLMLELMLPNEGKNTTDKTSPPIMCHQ
UniProt P20153: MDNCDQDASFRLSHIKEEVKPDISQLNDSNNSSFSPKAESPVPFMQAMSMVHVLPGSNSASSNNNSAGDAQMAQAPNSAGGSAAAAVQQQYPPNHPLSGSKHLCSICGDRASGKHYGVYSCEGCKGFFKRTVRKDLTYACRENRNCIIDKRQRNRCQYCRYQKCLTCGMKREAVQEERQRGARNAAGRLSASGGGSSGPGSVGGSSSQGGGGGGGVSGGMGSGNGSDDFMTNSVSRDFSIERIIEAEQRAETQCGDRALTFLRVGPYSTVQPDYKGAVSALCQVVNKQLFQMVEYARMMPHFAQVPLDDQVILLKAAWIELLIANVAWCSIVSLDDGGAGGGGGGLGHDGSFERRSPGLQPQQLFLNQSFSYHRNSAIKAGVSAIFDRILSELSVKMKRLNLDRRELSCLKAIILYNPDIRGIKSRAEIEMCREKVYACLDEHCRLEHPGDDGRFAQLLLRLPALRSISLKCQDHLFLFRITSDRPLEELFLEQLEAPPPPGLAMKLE

Target: Drosophila melanogaster ecdysone receptor (ECR), ligand-binding domain (Drosophila melanogaster) (UniProt P34021)
Test: two-hybrid; Matchmaker Gold system, Y2HGold yeast co-transformed with pGBKT7 (bait) and pGADT7 (prey); HIS3 and MEL1 reporters on SD-Leu-Trp-His/X-alpha-gal plates, streak method, growth and blue colour within 24-48 h; without ligand

Row | Substance | binding
1 | Caenorhabditis elegans NHR-64, ligand-binding domain (from UniProt O44960) (domain or fragment) | binds
2 | Drosophila melanogaster USP, ligand-binding domain (from UniProt P20153) (domain or fragment) | binds weakly

Results are given in words; binding and its absence hold for the method and conditions named. Binding can be weak; no strength is given.
